Results on four substances are retold here after paper PMC10560259.

Sequences of proteins named here, by UniProt entry; tags and fusion partners are left off.
UniProt Q00987: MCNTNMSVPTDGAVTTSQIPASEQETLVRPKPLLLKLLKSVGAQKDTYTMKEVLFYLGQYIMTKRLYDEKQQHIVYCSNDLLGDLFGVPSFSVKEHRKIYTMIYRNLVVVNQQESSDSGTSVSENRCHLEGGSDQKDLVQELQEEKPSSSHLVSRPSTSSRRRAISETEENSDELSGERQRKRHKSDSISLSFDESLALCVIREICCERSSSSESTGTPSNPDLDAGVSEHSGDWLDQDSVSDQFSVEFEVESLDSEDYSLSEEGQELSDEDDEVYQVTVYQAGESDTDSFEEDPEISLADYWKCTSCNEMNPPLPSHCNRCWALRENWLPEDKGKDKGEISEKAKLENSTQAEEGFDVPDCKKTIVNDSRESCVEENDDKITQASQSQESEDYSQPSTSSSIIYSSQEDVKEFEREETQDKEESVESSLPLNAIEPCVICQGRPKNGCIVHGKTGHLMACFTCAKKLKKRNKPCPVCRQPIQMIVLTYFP
UniProt O94763: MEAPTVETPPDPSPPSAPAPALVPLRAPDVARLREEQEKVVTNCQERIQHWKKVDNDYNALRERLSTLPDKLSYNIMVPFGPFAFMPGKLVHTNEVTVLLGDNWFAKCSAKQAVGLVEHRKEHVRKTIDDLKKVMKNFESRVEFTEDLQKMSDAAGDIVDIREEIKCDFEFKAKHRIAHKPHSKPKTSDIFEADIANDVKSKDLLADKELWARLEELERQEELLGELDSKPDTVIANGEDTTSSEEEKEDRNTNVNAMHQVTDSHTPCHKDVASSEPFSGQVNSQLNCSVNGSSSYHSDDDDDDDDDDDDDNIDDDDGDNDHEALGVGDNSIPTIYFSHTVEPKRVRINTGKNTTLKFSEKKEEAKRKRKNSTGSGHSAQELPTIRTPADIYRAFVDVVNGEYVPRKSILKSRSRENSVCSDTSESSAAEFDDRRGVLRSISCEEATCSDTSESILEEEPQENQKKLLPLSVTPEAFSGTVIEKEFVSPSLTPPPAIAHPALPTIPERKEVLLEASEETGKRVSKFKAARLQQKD
UniProt Q13263: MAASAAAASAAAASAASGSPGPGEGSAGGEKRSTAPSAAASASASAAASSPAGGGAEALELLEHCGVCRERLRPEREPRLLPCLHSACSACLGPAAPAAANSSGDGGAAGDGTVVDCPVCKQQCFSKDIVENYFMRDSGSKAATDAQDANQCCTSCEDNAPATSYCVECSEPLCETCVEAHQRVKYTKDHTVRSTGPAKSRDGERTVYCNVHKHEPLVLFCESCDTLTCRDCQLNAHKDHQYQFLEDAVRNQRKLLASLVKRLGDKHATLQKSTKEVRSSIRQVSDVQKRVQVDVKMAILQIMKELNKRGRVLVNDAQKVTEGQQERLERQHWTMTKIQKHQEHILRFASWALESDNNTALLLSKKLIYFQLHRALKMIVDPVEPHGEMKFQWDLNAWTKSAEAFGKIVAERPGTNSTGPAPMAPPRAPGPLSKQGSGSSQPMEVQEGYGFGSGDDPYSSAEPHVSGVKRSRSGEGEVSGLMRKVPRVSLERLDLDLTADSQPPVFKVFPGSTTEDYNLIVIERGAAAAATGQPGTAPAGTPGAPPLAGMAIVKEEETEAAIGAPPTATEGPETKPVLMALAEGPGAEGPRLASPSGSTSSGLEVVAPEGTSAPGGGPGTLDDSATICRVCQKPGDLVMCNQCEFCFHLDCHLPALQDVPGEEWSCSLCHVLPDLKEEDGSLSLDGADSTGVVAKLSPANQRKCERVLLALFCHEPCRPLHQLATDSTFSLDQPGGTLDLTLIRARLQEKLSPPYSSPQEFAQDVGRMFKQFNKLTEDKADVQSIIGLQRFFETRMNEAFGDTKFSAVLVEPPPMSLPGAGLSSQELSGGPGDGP

Assay [1] deals with MDM2 in HEK293T cells co-transfected with the indicated plasmids (Fig. 5j) (UniProt Q00987). The assay can be described thus: co-IP; HEK293T cells co-transfected with the indicated plasmids for 48 h, anti-Flag immunoprecipitation; with or without overexpression of URI.
A further assay concerns the target GST-URI, purified (UniProt O94763). In words: pull-down; GST pull-down in vitro with purified GST-URI and increasing doses of His-TRIM28; both purified.
Assay [2] has as its target unconventional prefoldin RPB5 interactor (URI), His-tagged, expressed in HEK293T (UniProt O94763). The assay can be described thus: co-IP; HEK293T cells transfected with His-URI plasmid, immunoprecipitated with anti-His antibody, Western blot. (In general: A western blot detects proteins with antibodies after separation by electrophoresis.)
The target of assay [3] is MDM2, endogenous, precipitated with anti-MDM2 antibody (human (endogenous; all cell lines of the paper are human)) (UniProt Q00987). In words: co-IP; anti-MDM2 immunoprecipitation of cell lysates, cells with or without URI depletion, immunoblotting.

No constants are given. Whether binding was seen depends on the method and setting. For some of these results: Binding seen in cells or lysates may run through a third protein. Some results given as binding are weak or reduced against the parent protein; the word gives no strength.

On to “TRIM28 in HEK293T cells co-transfected with the indicated plasmids (Fig. 5j) (from UniProt Q13263 1-835)”, for which the binding result in assay [1] was “binds”.

“His-TRIM28, purified recombinant (from UniProt Q13263 1-835)”: the binding entry with GST-URI, purified is “binds”.

Turning to “TRIM28, endogenous in HEK293T (from UniProt Q13263 1-835)”, the binding result in assay [2] was “binds”.

As to “TRIM28, endogenous, in the anti-MDM2 immunoprecipitate (from UniProt Q13263 1-835)”, the binding entry in assay [3] is reported as “binds”.
